Molecules are shown by their SMILES.

Usually IC50 stands for the concentration that gives 50% inhibition.

Assay [1] has as its system NCI-H2228 cells (parental cells). As to the kind of experiment: Cell growth suppression test on NCI-H2228 parental cells. The assay is classed as cell-based. The settings on record: Homo sapiens, Table 3, nine screening hits. The method, then:
(§1) Next, for these nine compounds, a cell growth suppression test was conducted, and the ratio of IC50 of DTP cells with respect to the parental line was calculated.

A further assay deals with DTP cells. Put plainly: Cell growth suppression test on DTP cells. The assay is classed as cell-based, human. The settings on record: Table 3. The method, then: as §1

On to `COc1cc(OC)cc(N(CCNC(C)C)c2ccc3ncc(-c4cnn(C)c4)nc3c2)c1` [Erdafitinib, N^1-(3,5-dimethoxyphenyl)-N^2-(1-methylethyl)-N^1-[3-(1-methyl-1H-pyrazol-4-yl)-6-quinoxalinyl]-1,2-ethanediamine], for which the IC50 in assay [1] was found to be 6.14 µM; in the assay on DTP cells (Homo sapiens, nine screening hits), 0.0067 µM. For the same compound, the “IC50 Ratio of parental to DTP cells” value with DTP cells is 920.8.

(Values after US20260140118A1, “COMBINATION DRUG” (CHUGAI SEIYAKU KABUSHIKI KAISHA, priority 2022, published 2026).)
